Measured values: publication PMC5333915
These are yes or no findings as the source states them, for the method shown. Some entries that bind do so weakly or less than the wild type. Tags and fused reporters may be left off the sequences shown.

Biological target: Suppressor of Gene Silencing 3 from Nicotiana benthamiana (NbSGS3), GAL4 two-hybrid fusion (Nicotiana benthamiana) (UniProt X4YFK1)
Test: two-hybrid; GAL4 system (pGADT7 AD, pGBKT7 BD) in yeast; reporter genes HIS3 and ADE2; growth on SD/Leu-Trp-His selection plates with 5 mM 3-AT; serial 10-fold dilutions

B1: Suppressor of Gene Silencing 3 from Nicotiana benthamiana (NbSGS3), GAL4 two-hybrid fusion (protein, UniProt X4YFK1 1-635)
chain: MSSSKGVGKSSAKQKAICETTTPTVDEISLGVGDMGFNSEQNDGWEVYARKTKNKSGSSAGKQWVPQNPSQKTWGNQNAKAWGHPDVVRKLGMRNNVGPGQGSRNNWSTPIDPRKPAGRDNSRPQLYDGGLGNCYTPSPAAVPPALKNGWDWSARAASTDPKEDQDASPVADSVKGSEHDGEDNESDFLDESDDDLRSDEFDSDVAEMSYETRKKNRWIKELFESLESLAVTEINDPERQWHCPACKGGPGAIEWFTGLQSLMTHAKTKGVRVKIHRELAELLEEELREIGTSVVPPGEVYGRWDGIEFKDKEIVWPPMVIIMNTRHDKGENDKWIGMGNQELLEYFSSYAAVKARHSYGPQGHRGMSVLIFEASAVGYIEADRLHEHFSENGRDRDAWERRAARFYSGGKRLLYGYMAEKRDIDSFNQHSPGKSRLKFEMRSYQEAVGNPAKQMMEDNQQLNWFKNKAAKHQMQAKALEQSLTLVSEKHRQTLEENKIVRLKTKIHHEQIKEEMEYQEQFFKDQIQIIHDARTAEEEKFEKVQQEQREMAQQSNASTSSVEDHRVRAERVAKFIKLQDKEMEEFVEERENLLRSHEDRIAALRRKYWEAEVELEKNFDLELAKLMEKYSPEQSQ
- binding: binds
